Results are given in words; binding and its absence hold for the method and conditions named. Binding seen in cells or lysates may run through a third protein.

Chains of the proteins cited; added tags and fusions are not shown. Lines headed by an entry give the natural chain unless they say otherwise; changes in a name come on top. Residues count along the entry.
UniProt P31358: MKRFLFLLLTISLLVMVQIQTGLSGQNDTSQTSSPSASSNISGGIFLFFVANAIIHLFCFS
UniProt P06127, residues 25-495: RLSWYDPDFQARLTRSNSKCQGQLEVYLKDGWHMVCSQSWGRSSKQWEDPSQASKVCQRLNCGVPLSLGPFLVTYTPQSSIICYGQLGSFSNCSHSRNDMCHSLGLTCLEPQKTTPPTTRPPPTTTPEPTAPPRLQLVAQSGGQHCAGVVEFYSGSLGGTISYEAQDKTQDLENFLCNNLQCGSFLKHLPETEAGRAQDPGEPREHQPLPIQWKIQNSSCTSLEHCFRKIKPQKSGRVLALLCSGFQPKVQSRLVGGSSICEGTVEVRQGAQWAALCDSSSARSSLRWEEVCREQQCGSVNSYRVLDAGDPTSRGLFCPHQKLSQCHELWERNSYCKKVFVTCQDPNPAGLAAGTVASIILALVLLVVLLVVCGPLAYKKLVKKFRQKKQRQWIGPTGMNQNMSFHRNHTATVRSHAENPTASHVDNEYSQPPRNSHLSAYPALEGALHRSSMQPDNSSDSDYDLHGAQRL

In paper PMC11418137 one finds binding data, which are given here for one substance.

The target of the test is T1, membrane-bound CD52 of CD4+ T cells (human (endogenous in CD4+ T cells of patients)) (UniProt P31358).
T1 sequence: GQNDTSQTSSPS
In words: FRET or BRET; AD CD4+ T cells stained with FITC-conjugated CD3ε, CD4, TCRβ or CD5 antibodies and DABCYL-conjugated anti-CD52 antibody or IgG1, in HBSS with or without 1 mM EDTA, fixed; read by flow cytometry (n = 3); Förster radius 6.2 nm. Background: Bioluminescence resonance energy transfer reports proximity on the nanometre scale.

For “CD5 of CD4+ T cells (from UniProt P06127 25-495)”, the binding entry was “no binding”.
